These are yes or no findings as the source states them, for the method shown. Binding seen in cells or lysates may run through a third protein. A yes stands for co-enrichment or nearness to the bait. Other partners may have been found. Tags and fused reporters may be left off the sequences shown.
T1: SFB-ZEB1, triple-epitope (S-protein, FLAG tag, and streptavidin-binding peptide)-tagged zinc finger E-box-binding homeobox 1 (UniProt P37275)
T1 sequence: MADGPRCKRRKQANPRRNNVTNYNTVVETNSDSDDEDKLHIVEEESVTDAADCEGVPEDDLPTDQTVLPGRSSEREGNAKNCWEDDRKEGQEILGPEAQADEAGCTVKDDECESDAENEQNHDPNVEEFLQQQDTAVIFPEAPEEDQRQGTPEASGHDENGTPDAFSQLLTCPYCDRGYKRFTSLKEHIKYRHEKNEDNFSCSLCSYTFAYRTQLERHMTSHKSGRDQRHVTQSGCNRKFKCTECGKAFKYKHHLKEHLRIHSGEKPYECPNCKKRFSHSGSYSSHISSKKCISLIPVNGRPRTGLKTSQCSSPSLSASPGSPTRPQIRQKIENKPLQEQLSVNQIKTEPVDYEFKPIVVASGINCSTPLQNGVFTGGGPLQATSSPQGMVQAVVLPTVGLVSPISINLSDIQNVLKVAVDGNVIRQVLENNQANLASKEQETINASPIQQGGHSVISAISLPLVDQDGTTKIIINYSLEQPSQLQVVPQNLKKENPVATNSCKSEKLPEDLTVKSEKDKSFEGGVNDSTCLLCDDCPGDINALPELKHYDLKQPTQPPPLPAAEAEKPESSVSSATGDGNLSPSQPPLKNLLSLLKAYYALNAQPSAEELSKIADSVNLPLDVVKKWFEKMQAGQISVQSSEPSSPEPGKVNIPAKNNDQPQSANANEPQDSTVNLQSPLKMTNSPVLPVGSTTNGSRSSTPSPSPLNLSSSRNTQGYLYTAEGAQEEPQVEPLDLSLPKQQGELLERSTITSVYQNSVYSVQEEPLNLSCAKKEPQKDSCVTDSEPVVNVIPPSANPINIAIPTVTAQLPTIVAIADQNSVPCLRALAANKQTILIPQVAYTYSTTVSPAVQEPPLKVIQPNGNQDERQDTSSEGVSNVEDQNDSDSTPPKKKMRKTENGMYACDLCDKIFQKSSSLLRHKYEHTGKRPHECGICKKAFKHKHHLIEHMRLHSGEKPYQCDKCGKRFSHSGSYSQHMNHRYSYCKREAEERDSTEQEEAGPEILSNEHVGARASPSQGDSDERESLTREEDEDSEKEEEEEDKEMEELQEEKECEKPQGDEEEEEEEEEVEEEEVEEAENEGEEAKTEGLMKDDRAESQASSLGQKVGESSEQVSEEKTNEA

Chains of the proteins cited; added tags and fusions are not shown.
UniProt Q93009: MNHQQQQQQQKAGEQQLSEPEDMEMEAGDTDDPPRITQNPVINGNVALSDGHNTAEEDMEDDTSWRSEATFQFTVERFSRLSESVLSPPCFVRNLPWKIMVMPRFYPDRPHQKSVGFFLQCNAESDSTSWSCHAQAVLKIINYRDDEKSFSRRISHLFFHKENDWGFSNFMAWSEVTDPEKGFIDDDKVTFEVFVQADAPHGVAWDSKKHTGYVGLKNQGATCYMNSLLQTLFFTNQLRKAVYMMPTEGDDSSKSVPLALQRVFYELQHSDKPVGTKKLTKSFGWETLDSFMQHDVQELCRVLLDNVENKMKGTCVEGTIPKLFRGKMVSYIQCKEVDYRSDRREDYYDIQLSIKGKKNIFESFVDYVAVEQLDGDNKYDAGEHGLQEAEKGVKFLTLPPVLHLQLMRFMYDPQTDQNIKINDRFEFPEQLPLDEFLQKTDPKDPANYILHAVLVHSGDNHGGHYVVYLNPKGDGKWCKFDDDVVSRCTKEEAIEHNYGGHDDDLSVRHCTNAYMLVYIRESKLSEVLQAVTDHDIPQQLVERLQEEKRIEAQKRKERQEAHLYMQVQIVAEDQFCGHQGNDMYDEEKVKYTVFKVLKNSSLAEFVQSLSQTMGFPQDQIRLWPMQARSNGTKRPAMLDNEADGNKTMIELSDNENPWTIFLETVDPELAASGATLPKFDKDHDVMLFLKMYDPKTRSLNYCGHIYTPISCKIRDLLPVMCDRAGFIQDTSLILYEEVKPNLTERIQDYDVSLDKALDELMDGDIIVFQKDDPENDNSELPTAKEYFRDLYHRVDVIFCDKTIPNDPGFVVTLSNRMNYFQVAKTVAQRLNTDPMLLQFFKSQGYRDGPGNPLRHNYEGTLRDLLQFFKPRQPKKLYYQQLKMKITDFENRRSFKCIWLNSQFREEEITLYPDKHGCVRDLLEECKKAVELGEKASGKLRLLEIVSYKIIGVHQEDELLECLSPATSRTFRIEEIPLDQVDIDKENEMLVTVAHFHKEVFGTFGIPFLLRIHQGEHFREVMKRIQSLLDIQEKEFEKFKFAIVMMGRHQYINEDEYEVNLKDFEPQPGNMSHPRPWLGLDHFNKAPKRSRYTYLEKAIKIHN

B1: CHFR (endogenous, found with SFB-ZEB1 by mass spectrometry) (enzyme, UniProt Q96EP1 1-664)
chain: MERPEEGKQSPPPQPWGRLLRLGAEEGEPHVLLRKREWTIGRRRGCDLSFPSNKLVSGDHCRIVVDEKSGQVTLEDTSTSGTVINKLKVVKKQTCPLQTGDVIYLVYRKNEPEHNVAYLYESLSEKQGMTQESFEANKENVFHGTKDTSGAGAGRGADPRVPPSSPATQVCFEEPQPSTSTSDLFPTASASSTEPSPAGRERSSSCGSGGGGISPKGSGPSVASDEVSSFASALPDRKTASFSSLEPQDQEDLEPVKKKMRGDGDLDLNGQLLVAQPRRNAQTVHEDVRAAAGKPDKMEETLTCIICQDLLHDCVSLQPCMHTFCAACYSGWMERSSLCPTCRCPVERICKNHILNNLVEAYLIQHPDKSRSEEDVQSMDARNKITQDMLQPKVRRSFSDEEGSSEDLLELSDVDSESSDISQPYVVCRQCPEYRRQAAQPPHCPAPEGEPGAPQALGDAPSTSVSLTTAVQDYVCPLQGSHALCTCCFQPMPDRRAEREQDPRVAPQQCAVCLQPFCHLYWGCTRTGCYGCLAPFCELNLGDKCLDGVLNNNSYESDILKNYLATRGLTWKNMLTESLVALQRGVFLLSDYRVTGDTVLCYCCGLRSFRELTYQYRQNIPASELPVAVTSRPDCYWGRNCRTQVKAHHAMKFNHICEQTRFKN

Biological target: T1, SFB-ZEB1, triple-epitope (S-protein, FLAG tag, and streptavidin-binding peptide)-tagged zinc finger E-box-binding homeobox 1
Assay: affinity purification with mass spectrometry; 293T cells transfected with SFB-ZEB1, 10 µM MG132 for 6 h before collection; tandem-affinity purification on streptavidin Sepharose beads and S-protein agarose beads, then mass spectrometry

binding, binds:
USP7 (from UniProt Q93009 1-1102) (enzyme), CTBP2 (from UniProt P56545 1-445), B1
